The values below come from paper PMC4166321.

Holding throughout (test): two-hybrid; yeast two-hybrid; bait as Gal4 BD fusion (pGBDU), prey as Gal4 AD fusion (pGAD); haploid cells of complementary mating types mixed in a 96 wells format; growth of diploids on selective media depleted for histidine
Assay [1] deals with T1, Hanks-type serine/threonine kinase YabT (Bacillus subtilis) (UniProt P37562).
T1 sequence: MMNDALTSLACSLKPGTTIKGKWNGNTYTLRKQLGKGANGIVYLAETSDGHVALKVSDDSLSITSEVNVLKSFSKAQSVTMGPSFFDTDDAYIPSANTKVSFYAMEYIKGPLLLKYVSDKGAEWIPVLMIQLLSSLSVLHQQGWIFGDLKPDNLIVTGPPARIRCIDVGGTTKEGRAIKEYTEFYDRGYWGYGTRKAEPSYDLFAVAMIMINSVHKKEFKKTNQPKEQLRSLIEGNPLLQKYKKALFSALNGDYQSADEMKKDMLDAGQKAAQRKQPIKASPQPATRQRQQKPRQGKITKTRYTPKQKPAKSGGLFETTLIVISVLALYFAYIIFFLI

The target in assay [2] is T2, two-component-like kinase RsbT (Bacillus subtilis) (UniProt P42411).
T2 sequence: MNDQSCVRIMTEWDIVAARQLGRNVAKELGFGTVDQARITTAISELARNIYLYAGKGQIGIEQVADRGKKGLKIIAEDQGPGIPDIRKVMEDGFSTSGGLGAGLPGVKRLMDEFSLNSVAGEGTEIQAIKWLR

Assay [3] has as its target BY-kinase PtkB (EpsB) (Bacillus subtilis).

These are yes or no findings as the source states them, for the method shown. Binding calls can cover weak binding; strength is not graded here.

On to “BY-kinase modulator TkmA (Bacillus subtilis)”, for which the binding entry in assay [1] is on record as “binds”. “catalytically inactive PtkA (D81A) (Bacillus subtilis) (enzyme)”: the binding entry in assay [2] is reported as “binds”.

In the case of “phosphotyrosine-protein phosphatase PtpZ (Bacillus subtilis) (enzyme)”, the binding result in assay [1] and in assay [2] was “binds” each time.

B1: Hanks-type serine/threonine kinase YabT (enzyme, UniProt P37562 1-338)
chain: T1 sequence
For B1, the binding entry in assay [3] is “binds”.
